Laboratory results: patent CN110144011A
Positions count from the first letter of the chain named. No constants are given. Whether binding was seen depends on the method and setting. Some results given as binding are weak or reduced against the parent protein; the word gives no strength.

By UniProt entry, the sequences of proteins in these tests, tags left out. Residues count along the entry.
UniProt Q8TDQ0, residues 22-202: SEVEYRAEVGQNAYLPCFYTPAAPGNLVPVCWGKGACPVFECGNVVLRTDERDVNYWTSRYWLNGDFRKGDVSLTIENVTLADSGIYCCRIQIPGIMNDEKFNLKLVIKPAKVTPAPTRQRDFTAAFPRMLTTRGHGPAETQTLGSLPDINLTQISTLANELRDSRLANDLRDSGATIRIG

B1: Nb13 (VHH)
VHH: QVQLQESGGGSVQVGGSLRLSCTASGYTYSRACMGWFRQAPGKQREWVSGVRHDGSITYADSVKGRFTISRDNAKNTLYLQMNSLKPEDTAMYYCGADIDCRGTRPPYWGQGTQVTVSS
B2: Nb10 (VHH)
VHH: QVQLQESGGGSVQAGGSLRLSCAASGYTYSRACMGWFRQAPGKQREWVSGIRDGGSTAYADSVKGRFTISRDNAKNTLYLQMNSLKPEDTAMYYCAADITCRHARPPYWGQGTQVTVSS
B3: Nb12 (VHH)
VHH: B1 VHH with V14P, V51I
B4: Nb9 (VHH)
VHH: B2 VHH with A14V, A23T, G54D
B5: Nb11 (VHH)
VHH: B2 VHH with A23T, G54D

Target: TIM3(ECD)-Fc抗原 (human) (UniProt Q8TDQ0)
Test: ELISA of crude periplasmic extract on antigen-coated plate, anti-HA detection; clones positive at OD ratio to control >3

Row | binding | Binder
1 | binds | B1
2 | binds | B2
3 | binds | B3
4 | binds | B4
5 | binds | B5
